# Experimental data from PubChem BioAssay AID504834 (National Center for Advancing Translational Sciences (NCATS), 2011).
# In all, about 320,000 compounds went through this assay and about 22,000 (6.9%) were called active. The inconclusive results got no clear call from the source; some entries with a clear call stand among them for comparison. The call rests on the fitted dose curve; in most records, active means well fitted inhibition curve with a large enough effect; inconclusive means small, poorly fitted or top-dose-only effect, or another doubt; inactive means no such curve, though single readings can be large or run the other way. A potency beside an inconclusive call is a rough fit, not a confirmed value.
# Assay: Primary qHTS for delayed death inhibitors of the malarial parasite plastid, 96 hour incubation
# Conditions: P. falciparum luciferase reporter growth; series mostly up to 28.7 µM; activity change, negative = inhibition: at the top concentration
# Outline: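 P. falciparum expressing integrated firefly luciferase, in erythrocytes at 2% hematocrit, 0.05% parasitemia, incubated with compounds 96 h at 37 C, 5% CO2. Growth inhibition read as loss of luminescence; two-generation exposure targets delayed-death apicoplast inhibitors.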
# On the % scale 0 is the no-effect control and ±100 the full control effect; potency means the concentration at half of the fitted maximal effect.
SMILES,"activity change, negative = inhibition",Potency
O=C(N/N=C/C=C\c1ccccc1[N+](=O)[O-])c1cc(-c2ccccc2)nc2ccccc12,inactive: -7.3%,–
COc1ccc(N2CCN(C(=O)COc3ccc(S(=O)(=O)N4CCOCC4)cc3C)CC2)cc1,–,"inconclusive: 10.4 µM [inhibitor, single point]"
O=C(CN1CCc2ccccc21)NC(=O)NC1CCCCC1,inactive: 19.2%,–
CNC(=O)c1c(NC(=O)c2ccc(N3C(=O)CCC3=O)cc2)sc2c1CCCC2,–,"inconclusive: 10.4 µM [inhibitor, partial curve, poor fit]"
O=C(COc1ccccc1Cl)NNC(=O)C1CCCO1 (stereo not given),inactive: 20.4%,–
O=C(NCCc1csc(-c2ccc(Cl)cc2)n1)c1ccco1,inactive: 8.73%,–
CC1C(c2ccccc2)N(C)CCC12NC(=O)NC2=O (stereo not given),inactive: 5.13%,–
Cn1c(SCC(=O)N2CC(=O)Nc3ccccc32)nc2ccccc2c1=O,–,"inconclusive: 10.4 µM [inhibitor, single point]"
CCOC(=O)/C(=N\Nc1ncnc2ccccc12)c1ccc(C)cc1,inactive: 407%,–
COc1ccc(-c2nnn(CC(=O)NC(=O)NC3CCCCC3)n2)cc1OC,–,"inconclusive: 13.1 µM [inhibitor, single point]"
COC(=O)c1c(NC(=O)Cc2cccs2)sc2c1CCCC2,–,"inconclusive: 18.5 µM [inhibitor, single point]"
CC(C)(C)CN1C(=O)C(=O)NC[C@@H]1Cc1ccc(O)cc1,inactive: 32.8%,–
COc1ccc(/C=C/C(=O)NCc2cccnc2)cc1,–,"inconclusive: 18.5 µM [inhibitor, single point]"
Cc1ccc(CNC(=O)C2CCCN(S(=O)(=O)c3c(C)[nH]c(=O)[nH]c3=O)C2)cc1 (stereo not given),inactive: -4.21%,–
CCCSc1nnc(NC(=O)CCc2ccccc2)s1,inactive: -7.48%,–
COc1ccc(NC(=O)C2CCN(C(=O)c3ccccc3)CC2)cc1OC,–,"inconclusive: 0.165 µM [inhibitor, full curve, poor fit]"
COc1ccccc1C(=O)N=Nc1c(O)[nH]c2ccc([N+](=O)[O-])cc12,–,"inconclusive: 0.131 µM [inhibitor, full curve, poor fit]"
CC(C)OCCCNC(=O)Cc1ccc(F)cc1,–,"inconclusive: 18.5 µM [inhibitor, single point]"
CCOC(=O)C1(CC2CCCCO2)CCN(Cc2nc3ccccc3nc2C)CC1 (stereo not given),–,active: 11.7 µM
Clc1ccc(C[n+]2cc(-c3ccccc3)n3c2CCCCC3)c(Cl)c1,–,active: 2.62 µM
O=C(COc1ccc(Cl)cc1Br)NC1CC1,inactive: 82.4%,–
Cc1ccc(CN(Cc2ccccn2)C(=O)Nc2ccc(C)c(C)c2)cc1,–,"inconclusive: 10.4 µM [inhibitor, single point]"
CCN(CC)C(=O)C1CCN(CC2CC=CCC2)CC1 (stereo not given),–,"inconclusive: 6.57 µM [inhibitor, partial curve]"

# An excerpt from above in order of SMILES length, largest number first.
SMILES,"activity change, negative = inhibition",Potency
COC(=O)c1c(NC(=O)Cc2cccs2)sc2c1CCCC2,–,"inconclusive: 18.5 µM [inhibitor, single point]"
O=C(COc1ccccc1Cl)NNC(=O)C1CCCO1 (stereo not given),inactive: 20.4%,–
CC(C)OCCCNC(=O)Cc1ccc(F)cc1,–,"inconclusive: 18.5 µM [inhibitor, single point]"

# Later entries

SMILES,"activity change, negative = inhibition",Potency
Cc1cc(C)cc(NC(=O)Nc2ccc(Cl)cn2)c1,–,"inconclusive: 18.5 µM [inhibitor, single point]"
CC(=O)Nc1ccc(S[C@@H](CCN2CC[C@H](C(C)(C)C)CCC2=O)c2ccccc2)cc1,–,"inconclusive: 16.5 µM [inhibitor, single point]"
Cn1c(SCC(=O)O)nnc1-c1ccc(NC(=O)c2ccc(Cl)c(Cl)c2)cc1,–,"inconclusive: 10.4 µM [inhibitor, single point]"
Cc1nnc(NC(=O)CSc2nnc(CC(=O)Nc3ccccc3C)n2C)s1,inactive: -3.78%,–
O=C(NCc1cccnc1)C1CC(=O)N(c2ccc(Cl)cc2)C1 (stereo not given),–,"inconclusive: 10.4 µM [inhibitor, partial curve]"
CCC(C)(C)NC(=O)CN(C(=O)CCC(=O)Nc1nccs1)c1ccc2c(c1)OCCO2,inactive: 8.05%,–
COc1cc(C(=O)Nc2ccc(C)cc2C(NCC(=O)NN)c2ccccc2)cc(OC)c1OC (stereo not given),–,active: 4.65 µM
COc1ccc(NC(=O)CN(C)S(=O)(=O)c2ccc(C)cc2)c([N+](=O)[O-])c1,–,"inconclusive: 11.7 µM [inhibitor, single point]"
CCOC(=O)c1c(C)[nH]c(C(=O)OCC(=O)c2ccccc2)c1C,inactive: 22.7%,–
COc1cc(/C=N/Nc2nc(C)nc3c2cnn3-c2ccccc2)ccc1O,–,"inconclusive: 11.7 µM [inhibitor, single point]"
Cc1c(Br)c([N+](=O)[O-])nn1C(C)C(=O)Nc1ccc2c(c1)OCO2 (stereo not given),–,"inconclusive: 0.465 µM [inhibitor, full curve, poor fit]"
CCCN1C2=NCCN2c2cc(C)c(C)cc21,–,"inconclusive: 0.0033 µM [inhibitor, full curve, poor fit]"
O=C(CSc1nnc(-c2ccncc2)o1)NC1C2CC3CC(C2)CC1C3 (stereo not given),–,"inconclusive: 3.29 µM [inhibitor, single point]"
COc1ccc2[nH]c(C)c(C(=O)CN(C)C)c2c1,–,"inconclusive: 18.5 µM [inhibitor, single point]"
N#Cc1ccccc1S(=O)(=O)N1CCN(S(=O)(=O)c2ccc(Br)c(C(=O)O)c2)CC1,–,"inconclusive: 18.5 µM [inhibitor, single point]"
CCn1c(SCC(=O)N2CCCc3ccccc32)nnc1-c1ccoc1C,–,"inconclusive: 18.5 µM [inhibitor, single point]"
C=CCNC(=S)N/N=C/c1ccc(C)s1,–,active: 4.65 µM
CCOC(=O)C1CCCN(C(=O)c2cc(S(=O)(=O)N(C)C)ccc2N2CCCC2)C1 (stereo not given),–,"inconclusive: 0.208 µM [inhibitor, full curve, poor fit]"
COC(=O)[C@]1(C)N[C@H](c2ccc(SC3CCCCC3)c(OC)c2)[C@@H]2C(=O)N(C)C(=O)[C@@H]21,–,"inconclusive: 11.7 µM [inhibitor, single point]"
Cc1cc(C)c(-c2csc(NC(=O)C3=COCCO3)n2)c(C)c1,–,"inconclusive: 18.5 µM [inhibitor, single point]"
CCCc1nc(N2CCN(S(=O)(=O)c3ccc(Cl)cc3)CC2)c2c(C)c(C)sc2n1,–,"inconclusive: 16.5 µM [inhibitor, single point]"
Cc1cc(C)cc(NC(=O)CN2C(=O)COc3ccc(S(=O)(=O)N4CCCC4)cc32)c1,–,"inconclusive: 16.5 µM [inhibitor, single point]"
